# Laboratory results as given in the supplement of paper PMC8728848.
# Some of the results follow.
# What was measured:
# Experiment in all cases: glycan array binding signal (z-score within array); higher = stronger binding
# Settings in all cases: glycan notation: IUPAC condensed, linker removed
# [1] = biological target: Fuc(a1-2)Gal
# Outline: (§1)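 Columns mapping to the same glycan were averaged after glycan names were converted to IUPAC-condensed notation. The data come from 3228 arrays in the Consortium for Functional Glycomics database, limited to those with an available protein sequence. Binding is reported as a within-array Z-score averaged across arrays of one protein sequence and across linkers.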
# [2] = biological target: Fuc(a1-2)Gal(b1-3)GalNAc
# Outline: as §1
# [3] = biological target: Fuc(a1-2)Gal(b1-3)GalNAc(a1-3)[Fuc(a1-2)]Gal(b1-4)Glc
# Outline: as §1
# [4] = biological target: Fuc(a1-2)Gal(b1-3)GalNAc(a1-3)[Fuc(a1-2)]Gal(b1-4)GlcNAc
# Outline: as §1
# [5] = biological target: Fuc(a1-2)Gal(b1-3)GalNAc(b1-3)Gal
# Outline: as §1
# [6] = biological target: Fuc(a1-2)Gal(b1-3)GalNAc(b1-3)Gal(a1-4)Gal(b1-4)Glc
# Outline: as §1
# [7] = biological target: Fuc(a1-2)Gal(b1-3)GalNAc(b1-4)[Neu5Ac(a2-3)]Gal(b1-4)Glc
# Outline: as §1
# [8] = biological target: Fuc(a1-2)Gal(b1-3)GlcNAc
# Outline: as §1
# [9] = biological target: Fuc(a1-2)Gal(b1-3)GlcNAc(b1-2)Man(a1-3)[Fuc(a1-2)Gal(b1-3)GlcNAc(b1-2)Man(a1-6)]Man(b1-4)GlcNAc(b1-4)GlcNAc
# Outline: as §1
# [10] = biological target: Fuc(a1-2)Gal(b1-3)GlcNAc(b1-3)Gal(b1-4)Glc
# Outline: as §1
# [11] = biological target: Fuc(a1-2)Gal(b1-3)GlcNAc(b1-3)[Fuc(a1-3)[Gal(b1-4)]GlcNAc(b1-6)]Gal(b1-4)Glc
# Outline: as §1
# [12] = biological target: Fuc(a1-2)Gal(b1-3)[Fuc(a1-4)]GlcNAc
# Outline: as §1
# [13] = biological target: Fuc(a1-2)Gal(b1-3)[Fuc(a1-4)]GlcNAc(b1-2)Man(a1-3)[Fuc(a1-2)Gal(b1-3)[Fuc(a1-4)]GlcNAc(b1-2)Man(a1-6)]Man(b1-4)GlcNAc(b1-4)GlcNAc
# Outline: as §1
# [14] = biological target: Fuc(a1-2)Gal(b1-3)[Fuc(a1-4)]GlcNAc(b1-3)[Fuc(a1-3)[Gal(b1-4)]GlcNAc(b1-6)]Gal(b1-4)Glc
# Outline: as §1
# [15] = biological target: Fuc(a1-2)Gal(b1-3)[Fuc(a1-4)]GlcNAc(b1-3)[Gal(b1-4)GlcNAc(b1-6)]Gal(b1-4)Glc
# Outline: as §1
# [16] = biological target: Fuc(a1-2)Gal(b1-4)Glc
# Outline: as §1
# [17] = biological target: Fuc(a1-2)Gal(b1-4)Glc6S
# Outline: as §1
# [18] = biological target: Fuc(a1-2)Gal(b1-4)GlcNAc
# Outline: as §1
# [19] = biological target: Fuc(a1-2)Gal(b1-4)GlcNAc(b1-2)Man(a1-3)[Fuc(a1-2)Gal(b1-4)GlcNAc(b1-2)Man(a1-6)]Man(b1-4)GlcNAc(b1-4)GlcNAc
# Outline: as §1
# [20] = biological target: Fuc(a1-2)Gal(b1-4)GlcNAc(b1-3)Gal(b1-4)GlcNAc
# Outline: as §1
# [21] = biological target: Fuc(a1-2)Gal(b1-4)GlcNAc(b1-3)Gal(b1-4)GlcNAc(b1-3)Gal(b1-4)GlcNAc
# Outline: as §1
# [22] = biological target: Fuc(a1-2)Gal(b1-4)GlcNAc(b1-3)GalNAc
# Outline: as §1
# [23] = biological target: Fuc(a1-2)Gal(b1-4)GlcNAc6S
# Outline: as §1
# [24] = biological target: Fuc(a1-2)Gal(b1-4)[Fuc(a1-3)]GlcNAc
# Outline: as §1
# [25] = biological target: Fuc(a1-2)Gal(b1-4)[Fuc(a1-3)]GlcNAc(b1-2)Man(a1-3)[Fuc(a1-2)Gal(b1-4)[Fuc(a1-3)]GlcNAc(b1-2)Man(a1-6)]Man(b1-4)GlcNAc(b1-4)GlcNAc
# Outline: as §1
# [26] = biological target: Fuc(a1-2)Gal(b1-4)[Fuc(a1-3)]GlcNAc(b1-3)Gal(b1-4)[Fuc(a1-3)]GlcNAc
# Outline: as §1
# [27] = biological target: Fuc(a1-2)Gal(b1-4)[Fuc(a1-3)]GlcNAc(b1-3)Gal(b1-4)[Fuc(a1-3)]GlcNAc(b1-3)Gal(b1-4)[Fuc(a1-3)]GlcNAc
# Outline: as §1
# [28] = biological target: Fuc(a1-2)Gal6S(b1-4)Glc
# Outline: as §1
# [29] = biological target: Fuc(a1-2)Gal6S(b1-4)Glc6S
# Outline: as §1
# [30] = biological target: Fuc(a1-2)Gal6S(b1-4)GlcNAc
# Outline: as §1
# [31] = biological target: Fuc(a1-2)[Gal(a1-3)]Gal
# Outline: as §1
# [32] = biological target: Fuc(a1-2)[Gal(a1-3)]Gal(b1-3)GlcNAc
# Outline: as §1
# [33] = biological target: Fuc(a1-2)[Gal(a1-3)]Gal(b1-3)GlcNAc(b1-2)Man(a1-3)[Fuc(a1-2)[Gal(a1-3)]Gal(b1-3)GlcNAc(b1-2)Man(a1-6)]Man(b1-4)GlcNAc(b1-4)GlcNAc
# Outline: as §1
# [34] = biological target: Fuc(a1-2)[Gal(a1-3)]Gal(b1-4)Glc
# Outline: as §1
# [35] = biological target: Fuc(a1-2)[Gal(a1-3)]Gal(b1-4)GlcNAc
# Outline: as §1
# [36] = biological target: Fuc(a1-2)[Gal(a1-3)]Gal(b1-4)GlcNAc(b1-2)Man(a1-3)[Fuc(a1-2)[Gal(a1-3)]Gal(b1-4)GlcNAc(b1-2)Man(a1-6)]Man(b1-4)GlcNAc(b1-4)GlcNAc
# Outline: as §1
# [37] = biological target: Fuc(a1-2)[Gal(a1-3)]Gal(b1-4)[Fuc(a1-3)]GlcNAc
# Outline: as §1
binder,measurement,setting,value
"PEB4 (Campylobacter jejuni), A1VYV6 (protein) MKKFSLVAAALIAGVALNVNAATVATVNGKSISDAEVSEFFAPMLRGQDFKTLPDNQKKALIQQYIMQDLILQDAKKQNLEKDPLYTKELDRAKDAILVNVYQEKILNTIKIDAAKVKAFYDQNKDKYVKPARVQAKHILVATEKEAKDIINELKGLKGKELDAKFSELAKEKSIDPGSKNQGGELGWFDQSTMVKPFTDAAFALKNGTITTTPVKTNFGYHVILKENSQAKGQIKFDEVKQGIENGLKFEEFKKVINQKGQDLLNSAKVEYK",glycan array binding signal (z-score),[1],0.031
same,glycan array binding signal (z-score),[2],0.001
same,glycan array binding signal (z-score),[3],-0.592
same,glycan array binding signal (z-score),[4],-0.144
same,glycan array binding signal (z-score),[5],0.194
same,glycan array binding signal (z-score),[6],-0.344
same,glycan array binding signal (z-score),[7],-0.3
same,glycan array binding signal (z-score),[8],1.41
same,glycan array binding signal (z-score),[9],1.11
same,glycan array binding signal (z-score),[10],0.097
same,glycan array binding signal (z-score),[11],0.217
same,glycan array binding signal (z-score),[12],1.38
same,glycan array binding signal (z-score),[13],-0.341
same,glycan array binding signal (z-score),[14],0.3
same,glycan array binding signal (z-score),[15],1.36
same,glycan array binding signal (z-score),[16],-0.887
same,glycan array binding signal (z-score),[17],0.589
same,glycan array binding signal (z-score),[18],0.024
same,glycan array binding signal (z-score),[19],-0.644
same,glycan array binding signal (z-score),[20],0.019
same,glycan array binding signal (z-score),[21],0.448
same,glycan array binding signal (z-score),[22],-0.795
same,glycan array binding signal (z-score),[23],0.788
same,glycan array binding signal (z-score),[24],0.26
same,glycan array binding signal (z-score),[25],1.14
same,glycan array binding signal (z-score),[26],0.185
same,glycan array binding signal (z-score),[27],0.332
same,glycan array binding signal (z-score),[28],-1.04
same,glycan array binding signal (z-score),[29],0.571
same,glycan array binding signal (z-score),[30],-0.78
same,glycan array binding signal (z-score),[31],-0.517
same,glycan array binding signal (z-score),[32],0.388
same,glycan array binding signal (z-score),[33],-0.582
same,glycan array binding signal (z-score),[34],-0.379
same,glycan array binding signal (z-score),[35],-0.349
same,glycan array binding signal (z-score),[36],1.3
same,glycan array binding signal (z-score),[37],0.477

# 2 entries from above, as tab-separated lines:
binder	measurement	setting	value
PEB4 (Campylobacter jejuni), A1VYV6 (protein) MKKFSLVAAALIAGVALNVNAATVATVNGKSISDAEVSEFFAPMLRGQDFKTLPDNQKKALIQQYIMQDLILQDAKKQNLEKDPLYTKELDRAKDAILVNVYQEKILNTIKIDAAKVKAFYDQNKDKYVKPARVQAKHILVATEKEAKDIINELKGLKGKELDAKFSELAKEKSIDPGSKNQGGELGWFDQSTMVKPFTDAAFALKNGTITTTPVKTNFGYHVILKENSQAKGQIKFDEVKQGIENGLKFEEFKKVINQKGQDLLNSAKVEYK	glycan array binding signal (z-score)	[19]	-0.644
same	glycan array binding signal (z-score)	[26]	0.185
